Assay results reported in PubChem BioAssay AID504834 (National Center for Advancing Translational Sciences (NCATS), 2011).
Out of some 320,000 compounds screened, about 22,000 (6.9%) were called active. This list was built around the results that the source calls inconclusive (neither active nor inactive); the mix of calls is not that of the screen. The call rests on the fitted dose curve; in most records, active means well fitted inhibition curve with a large enough effect; inconclusive means small, poorly fitted or top-dose-only effect, or another doubt; inactive means no such curve, though single readings can be large or run the other way. A potency beside an inconclusive call is a rough fit, not a confirmed value.

Assay: Primary qHTS for delayed death inhibitors of the malarial parasite plastid, 96 hour incubation
Conditions: P. falciparum luciferase reporter growth; series mostly up to 28.7 µM
Procedure, shortened: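 P. falciparum expressing integrated firefly luciferase grown in erythrocytes (2% hematocrit, 0.05% parasitemia final) with compounds for 96 hours at 37 C, 5% CO2. Growth inhibition read as loss of luminescence after adding luciferase detection reagent.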
On the % scale 0 is the no-effect control and ±100 the full control effect; potency means the concentration at half of the fitted maximal effect.

Compound | Potency | activity change, negative = inhibition
COC(=O)c1ccc(OCC2c3cc(OC)c(OC)cc3CCN2C(=O)c2ccco2)cc1 (stereo not drawn) | inconclusive: 4.15 µM [inhibitor, single point] | –
COc1cccc(C(=O)N2CCCC(CCC(=O)NCc3ccc(F)c(F)c3)C2)c1 (stereo not drawn) | inconclusive: 10.4 µM [inhibitor, single point] | –
Cc1ccccc1C(=O)Nc1sc2c(c1C(=O)O)CCC2 | inconclusive: 20.8 µM [inhibitor, partial curve, poor fit] | –
COc1cccc(N(C(=O)Cn2nnc(-c3cccs3)n2)C(C(=O)NC(C)C)c2ccc(C)o2)c1 (stereo not drawn) | inactive | –
CCOC(=O)C1=C(C)Nc2sc(C(=O)c3ccc(OC)cc3)c(N)c2C1c1ccc(C(=O)OC)cc1 (stereo not drawn) | active: 5.86 µM | –
Cc1c(OCC(=O)NCCN2CCOCC2)ccc2c(-c3ccccc3)cc(=O)oc12 | inactive | –
CCN(CC)C(=O)CSc1nnc(-c2ccccc2)n1N | inactive | –
CCOc1ccc(CNS(=O)(=O)c2ccc3c(c2)CC(=O)N3C)cc1 | inconclusive: 18.5 µM [inhibitor, partial curve, poor fit] | –
O=C(c1ccc2nc[nH]c2c1)N1CCN(c2ncc(C(F)(F)F)cc2Cl)CC1 | inconclusive: 11.7 µM [inhibitor, single point] | –
COc1ccc(NC(=O)CN2C3CCC2CC(O)(c2cccnc2)C3)cc1OC (stereo not drawn) | inconclusive: 10.4 µM [inhibitor, partial curve, poor fit] | –
NC(=O)C1CCN(c2nc(-c3cccc4sc5ccccc5c34)cs2)CC1 | inconclusive: 18.5 µM [inhibitor, single point] | –
COc1ccc(/C=C/C(=O)Nc2cccc(S(=O)(=O)NC3=NCCCCC3)c2)cc1OC | inconclusive: 16.5 µM [inhibitor, partial curve, poor fit] | –
CCC1=C(OC(=O)N(CC)CC)N2C(=O)OC(=NCC3CC3)[C@]2(C)[C@H]2C1=CC[C@H]1C(=O)N(CC(=O)OC)C(=O)[C@H]12 | inconclusive: 18.5 µM [inhibitor, single point] | –
Clc1ccc(Cc2nnc(-c3cccs3)o2)cc1 | inconclusive: 7.38 µM [inhibitor, partial curve, poor fit] | –
Brc1cc(Br)cc(CN2CCSCC2)c1 | inconclusive: 0.0828 µM [inhibitor, full curve, poor fit] | –
O=C(OCC(=O)N1CCN(c2ccccc2)CC1)c1cccc(Cl)c1 | inconclusive: 0.37 µM [inhibitor, partial curve, poor fit] | –
CC12CCC(C(=O)N3CCN(C(c4ccccc4)c4ccccc4)CC3)(OC1=O)C2(C)C (stereo not drawn) | active: 1.65 µM | –
CN(C(=O)CO/N=C/c1ccc(Cl)cc1)c1ccccc1 | inconclusive: 18.5 µM [inhibitor, single point] | –
O=C(NCCc1ccccc1)C1CCC(CNS(=O)(=O)c2ccc(F)cc2)CC1 (stereo not drawn) | inconclusive: 18.5 µM [inhibitor, single point] | –
O=[N+]([O-])c1ccc(N/N=C/c2cccc(O)c2O)cc1 | inconclusive: 0.0329 µM [inhibitor, full curve, poor fit] | –
CC(C)c1ccccc1NC(=S)NC(C)c1ccccc1 (stereo not drawn) | inconclusive: 18.5 µM [inhibitor, single point] | –
Oc1ccc(/C=N/Nc2nc(-c3ccccc3F)nc3ccccc23)c(O)c1 | active: 11.7 µM | –
c1ccc(Cc2nnc3sc(-c4ccccn4)nn23)cc1 | inconclusive: 18.5 µM [inhibitor, single point] | –

Compound | Potency | activity change, negative = inhibition
COc1cccc2c1OCC(CN1CCN(C3CCCCC3)C(CCO)C1)=C2 (stereo not drawn) | inconclusive: 18.5 µM [inhibitor, single point] | –
Cc1cc(C(C)(C)C)cc(C)c1COC(=O)CN1C(=O)NC2(CCCC2)C1=O | inconclusive: 13.1 µM [inhibitor, partial curve, poor fit] | –
COC(=O)C(Cc1c[nH]c2ccccc12)NC(=O)c1ccccc1Br (stereo not drawn) | inactive | –
O=C(Oc1c(-c2ccccc2)c(=O)n2c3c(cccc13)CC2)c1ccccc1 | inconclusive: 0.037 µM [inhibitor, full curve, poor fit] | –
COc1ccc(/C=N/NC(=O)c2c(Br)cnn2C)c2ccccc12 | inactive | –
CCN(CC)P(=O)(Oc1cccc(C)c1)N(CC)CC | inconclusive: 18.5 µM [inhibitor, single point] | –
O=C(c1cc([N+](=O)[O-])ccc1N1CCOCC1)N1CCN(c2ccccc2)CC1 | inactive | –
COCCOC(=O)C1=C(N)Oc2c(c(=O)oc3ccccc23)C1c1ccncc1 (stereo not drawn) | inconclusive: 4.15 µM [inhibitor, partial curve, poor fit] | –
CC1CCC(O)C/C1=C\C=C1/CCCC2(C)C1CCC2C(C)/C=C/C(C)C(C)C (stereo not drawn) | inactive | –
CC1CCCCC1NC(=O)c1ccc(CNc2c(N3CCCC3)c(=O)c2=O)cc1 (stereo not drawn) | active: 8.28 µM | –
O=C1/C(=C/c2ccc(N3CCOCC3)o2)SC(=Nc2ccccc2)N1CCc1c[nH]c2ccccc12 | active: 1.65 µM | –
CN(C)S(=O)(=O)N(CC(=O)N1CCN(c2ccccc2F)CC1)c1ccccc1 | – | inactive: 9.67% [at 5.75 µM]
COc1ccc(C2CC(=O)c3ccccc3O2)cc1 (stereo not drawn) | inactive | –
COc1ccc(C(=O)Nc2cc(C)nn2-c2ccc(C)cc2)cc1 | inactive | –
Cc1cc(C)cc(C(=O)NCCC(=O)N2CCC3(CC2)NCCc2[nH]cnc23)c1 | inactive | –
CCOC(=O)Cn1nc(C)c(NC(=O)COc2ccc(F)cc2F)c1C | inconclusive: 11.7 µM [inhibitor, partial curve] | –
O=C(CSc1nnc(-c2ccc(O)cc2)o1)Nc1ccccc1Br | inconclusive: 8.28 µM [inhibitor, partial curve, poor fit] | –
CCOc1ccc(NC(=O)CCNS(=O)(=O)c2ccc3c(c2)CCC(=O)N3)cc1 | inactive | –
COC(=O)c1ccc(N2C(=O)CC(N(C)Cc3ccccc3)C2=O)cc1 (stereo not drawn) | active: 0.294 µM | –
O=C(/C=C/c1cccc([N+](=O)[O-])c1)N1CCN(S(=O)(=O)c2cccs2)CC1 | inconclusive: 8.28 µM [inhibitor, partial curve, poor fit] | –
CS(=O)(=O)c1ccc(Cl)c(NC(=O)c2cc(S(=O)(=O)N3CCOCC3)ccc2N2CCCC2)c1 | active: 13.1 µM | –
Cc1onc(-c2c(F)cccc2Cl)c1C(=O)N1CCCCC1 | inactive | –
O=C(O)c1cccc(-n2cccc2/C=C2/SC(=O)N(CC(=O)N3CCCC3)C2=O)c1 | inactive | –

Compound | Potency | activity change, negative = inhibition
O=C(CN1CCCCCC1)NCCN1C(=O)S/C(=C\c2ccccc2Cl)C1=O | inconclusive: 0.0026 µM [inhibitor, full curve, poor fit] | –
COc1ccc(-c2cc(C(=O)NCC(c3ccccc3)N(C)C)c3ccccc3n2)cc1OC (stereo not drawn) | active: 9.28 µM | –
O=C(Nc1nccs1)C1CCCN1S(=O)(=O)c1cccc2cccnc12 (stereo not drawn) | inconclusive: 14.7 µM [inhibitor, single point] | –
CCOC(=O)c1c(C)nc(C)c(C(=O)OCC)c1-c1cccnc1 | inconclusive: 2.08 µM [inhibitor, full curve, poor fit] | –
Brc1ccccc1-c1nnc(CSc2nncn2-c2ccccc2)o1 | inconclusive: 18.5 µM [inhibitor, single point] | –
CCOc1ccc(-c2ncncc2-c2ccc(OC)c(OC)c2)c(O)c1 | inconclusive: 18.5 µM [inhibitor, single point] | –
Cc1ccc(/C=C2/C(=O)NC(=O)N(C)C2=O)cc1 | inactive | –
Clc1cccc(N/N=C/c2ccc(N3CCOCC3)cc2)c1 | inconclusive: 18.5 µM [inhibitor, single point] | –
COc1cc(OC)c(/C=N/NC(=O)c2ccc(NC(C)=O)cc2)cc1Br | inconclusive: 11.7 µM [inhibitor, single point] | –
COc1ccccc1C(=O)Nc1ccc2nc(SCC(=O)N(C)C)sc2c1 | active: 11.7 µM | –
O=C(Nc1ccc(Cl)cc1)N1CCSc2ccccc21 | inconclusive: 14.7 µM [inhibitor, partial curve, poor fit] | –
COc1ccccc1NC(=S)NCc1cccs1 | inactive | –
Cc1ccc(Nc2c(-c3cccnc3)nc3ccc(Br)cn23)cc1 | inconclusive: 11.7 µM [inhibitor, single point] | –
COc1ccc(OCc2cc(C(=O)N(C)C(C)c3ccon3)no2)c(Cl)c1 (stereo not drawn) | inconclusive: 14.7 µM [inhibitor, single point] | –
CS(=O)(=O)Nc1cccc(C2=NN(C(=O)c3ccccc3Cl)C(c3ccccc3O)C2)c1 (stereo not drawn) | inconclusive: 11.7 µM [inhibitor, single point] | –
O=C(O)/C=C/C(=O)N1CCN(C(c2ccccc2)c2ccccc2)CC1 | inconclusive: 0.0586 µM [inhibitor, full curve, poor fit] | –
COc1ccc(OCC(=O)OCC(=O)NCc2ccco2)cc1 | – | inactive: -7.13% [at 5.75 µM]
CN(C)S(=O)(=O)c1cccc(NC(=S)N/N=C/c2ccc(O)c(O)c2O)c1 | inactive | –
Cc1ccc2c(C(=O)CN3CCN(C(=O)c4ccco4)CC3)c(C)[nH]c2c1 | inconclusive: 2.08 µM [inhibitor, full curve, poor fit] | –
COCc1ccc(C(=O)N2CCCC(C(=O)c3cccc(C(F)(F)F)c3)C2)o1 (stereo not drawn) | inconclusive: 18.5 µM [inhibitor, single point] | –
CC(=O)NCCCNS(=O)(=O)c1ccc(C)cc1 | inconclusive: 18.5 µM [inhibitor, single point] | –
COc1cc(OC)c(N2CC(C(=O)Nc3cc(Cl)ccc3N3CCOCC3)CC2=O)cc1Cl (stereo not drawn) | active: 11.7 µM | –

A draw from above in order of SMILES length, rising.
Compound | Potency | activity change, negative = inhibition
Cc1ccc(Nc2c(-c3cccnc3)nc3ccc(Br)cn23)cc1 | inconclusive: 11.7 µM [inhibitor, single point] | –
COc1cc(OC)c(/C=N/NC(=O)c2ccc(NC(C)=O)cc2)cc1Br | inconclusive: 11.7 µM [inhibitor, single point] | –
COc1cc(OC)c(N2CC(C(=O)Nc3cc(Cl)ccc3N3CCOCC3)CC2=O)cc1Cl (stereo not drawn) | active: 11.7 µM | –
